{"sequences": {"note": "Chains of the proteins cited; added tags and fusions are not shown. Lines headed by an entry give the natural chain unless they say otherwise; changes in a name come on top.", "UniProt O88455": "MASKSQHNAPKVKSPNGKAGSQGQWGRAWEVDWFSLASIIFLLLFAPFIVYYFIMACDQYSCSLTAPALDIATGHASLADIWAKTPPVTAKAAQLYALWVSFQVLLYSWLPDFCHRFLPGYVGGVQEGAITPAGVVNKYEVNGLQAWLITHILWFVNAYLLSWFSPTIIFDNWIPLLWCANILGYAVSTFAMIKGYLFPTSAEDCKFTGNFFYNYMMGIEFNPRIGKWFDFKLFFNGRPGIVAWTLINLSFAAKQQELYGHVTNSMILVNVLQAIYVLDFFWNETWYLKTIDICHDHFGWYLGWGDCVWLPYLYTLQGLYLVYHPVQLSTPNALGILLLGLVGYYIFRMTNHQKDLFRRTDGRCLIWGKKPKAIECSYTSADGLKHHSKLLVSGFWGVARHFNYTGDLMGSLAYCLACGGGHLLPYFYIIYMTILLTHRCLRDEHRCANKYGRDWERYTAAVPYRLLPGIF", "UniProt O70591, whole entry": "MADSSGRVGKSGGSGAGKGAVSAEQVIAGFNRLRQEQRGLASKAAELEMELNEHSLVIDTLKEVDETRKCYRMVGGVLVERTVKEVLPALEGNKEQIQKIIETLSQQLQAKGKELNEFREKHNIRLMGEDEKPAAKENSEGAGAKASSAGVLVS", "UniProt O89086": "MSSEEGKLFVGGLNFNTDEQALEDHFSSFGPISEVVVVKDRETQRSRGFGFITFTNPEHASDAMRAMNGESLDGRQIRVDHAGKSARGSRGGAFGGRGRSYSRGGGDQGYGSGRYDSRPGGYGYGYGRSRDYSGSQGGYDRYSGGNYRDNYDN", "UniProt O88967": "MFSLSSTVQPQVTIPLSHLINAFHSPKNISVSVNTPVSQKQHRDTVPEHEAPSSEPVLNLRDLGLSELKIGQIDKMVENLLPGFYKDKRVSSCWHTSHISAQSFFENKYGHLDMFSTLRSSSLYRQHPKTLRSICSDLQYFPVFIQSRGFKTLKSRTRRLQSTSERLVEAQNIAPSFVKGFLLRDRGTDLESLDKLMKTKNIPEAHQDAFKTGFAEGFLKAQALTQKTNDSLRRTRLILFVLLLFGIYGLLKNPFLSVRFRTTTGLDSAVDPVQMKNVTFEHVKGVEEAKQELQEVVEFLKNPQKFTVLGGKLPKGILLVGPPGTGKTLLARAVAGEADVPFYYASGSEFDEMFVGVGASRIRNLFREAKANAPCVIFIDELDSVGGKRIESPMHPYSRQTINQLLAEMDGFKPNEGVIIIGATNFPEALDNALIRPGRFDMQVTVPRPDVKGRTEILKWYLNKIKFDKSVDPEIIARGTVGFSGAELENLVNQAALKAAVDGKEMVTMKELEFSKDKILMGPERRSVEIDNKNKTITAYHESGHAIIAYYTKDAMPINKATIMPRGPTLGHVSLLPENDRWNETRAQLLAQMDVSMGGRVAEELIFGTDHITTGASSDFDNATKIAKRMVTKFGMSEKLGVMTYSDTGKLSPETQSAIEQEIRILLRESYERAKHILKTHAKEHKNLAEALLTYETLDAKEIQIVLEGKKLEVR", "UniProt O89026": "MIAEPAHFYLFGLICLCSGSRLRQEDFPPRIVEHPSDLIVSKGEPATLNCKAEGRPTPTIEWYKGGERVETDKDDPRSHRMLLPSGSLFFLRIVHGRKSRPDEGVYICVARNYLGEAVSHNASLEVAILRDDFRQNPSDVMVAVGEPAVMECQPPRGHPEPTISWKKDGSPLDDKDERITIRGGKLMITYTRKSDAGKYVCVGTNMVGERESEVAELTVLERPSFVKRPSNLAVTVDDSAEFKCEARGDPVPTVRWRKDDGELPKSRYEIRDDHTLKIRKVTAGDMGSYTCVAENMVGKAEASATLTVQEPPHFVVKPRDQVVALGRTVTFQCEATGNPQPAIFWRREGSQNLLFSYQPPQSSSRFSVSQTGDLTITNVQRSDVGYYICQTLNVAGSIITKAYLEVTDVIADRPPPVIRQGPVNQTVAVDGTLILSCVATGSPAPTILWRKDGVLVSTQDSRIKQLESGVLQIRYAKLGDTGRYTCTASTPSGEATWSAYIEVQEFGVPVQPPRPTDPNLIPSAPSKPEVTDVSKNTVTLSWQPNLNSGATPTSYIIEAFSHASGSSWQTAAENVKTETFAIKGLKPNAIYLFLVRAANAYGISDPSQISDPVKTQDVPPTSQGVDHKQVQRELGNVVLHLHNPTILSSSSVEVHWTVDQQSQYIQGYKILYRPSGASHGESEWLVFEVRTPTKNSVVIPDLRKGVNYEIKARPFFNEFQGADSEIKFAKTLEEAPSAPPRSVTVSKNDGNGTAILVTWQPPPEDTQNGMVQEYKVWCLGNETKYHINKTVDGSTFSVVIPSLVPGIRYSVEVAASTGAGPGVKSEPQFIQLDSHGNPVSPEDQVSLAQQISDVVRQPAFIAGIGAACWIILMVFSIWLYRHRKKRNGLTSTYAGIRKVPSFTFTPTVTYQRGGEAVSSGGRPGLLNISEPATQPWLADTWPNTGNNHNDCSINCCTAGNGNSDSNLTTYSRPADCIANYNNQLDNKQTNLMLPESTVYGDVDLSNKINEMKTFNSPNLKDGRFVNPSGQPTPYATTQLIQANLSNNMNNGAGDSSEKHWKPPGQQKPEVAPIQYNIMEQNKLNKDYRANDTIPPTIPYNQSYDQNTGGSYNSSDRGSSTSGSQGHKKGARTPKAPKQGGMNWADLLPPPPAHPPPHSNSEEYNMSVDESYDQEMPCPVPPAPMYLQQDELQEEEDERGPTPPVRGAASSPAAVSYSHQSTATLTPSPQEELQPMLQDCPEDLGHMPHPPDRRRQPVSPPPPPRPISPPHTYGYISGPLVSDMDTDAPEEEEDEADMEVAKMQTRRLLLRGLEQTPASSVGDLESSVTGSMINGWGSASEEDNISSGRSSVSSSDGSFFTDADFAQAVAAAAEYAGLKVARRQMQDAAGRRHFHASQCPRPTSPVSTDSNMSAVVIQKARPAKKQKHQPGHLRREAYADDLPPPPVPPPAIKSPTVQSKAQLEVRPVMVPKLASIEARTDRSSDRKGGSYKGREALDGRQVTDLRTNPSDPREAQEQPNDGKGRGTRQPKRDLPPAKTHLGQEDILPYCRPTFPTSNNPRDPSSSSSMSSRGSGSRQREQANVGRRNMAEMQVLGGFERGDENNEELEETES", "UniProt O35295": "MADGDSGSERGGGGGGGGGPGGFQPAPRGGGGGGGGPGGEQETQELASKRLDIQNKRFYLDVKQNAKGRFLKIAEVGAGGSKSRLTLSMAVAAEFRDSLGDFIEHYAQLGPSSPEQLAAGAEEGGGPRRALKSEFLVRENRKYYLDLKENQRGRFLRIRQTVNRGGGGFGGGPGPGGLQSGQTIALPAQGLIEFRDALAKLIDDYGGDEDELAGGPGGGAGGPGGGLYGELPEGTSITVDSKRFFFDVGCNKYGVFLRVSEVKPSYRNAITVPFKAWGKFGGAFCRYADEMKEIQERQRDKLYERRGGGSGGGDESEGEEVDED", "UniProt O70194, whole entry": "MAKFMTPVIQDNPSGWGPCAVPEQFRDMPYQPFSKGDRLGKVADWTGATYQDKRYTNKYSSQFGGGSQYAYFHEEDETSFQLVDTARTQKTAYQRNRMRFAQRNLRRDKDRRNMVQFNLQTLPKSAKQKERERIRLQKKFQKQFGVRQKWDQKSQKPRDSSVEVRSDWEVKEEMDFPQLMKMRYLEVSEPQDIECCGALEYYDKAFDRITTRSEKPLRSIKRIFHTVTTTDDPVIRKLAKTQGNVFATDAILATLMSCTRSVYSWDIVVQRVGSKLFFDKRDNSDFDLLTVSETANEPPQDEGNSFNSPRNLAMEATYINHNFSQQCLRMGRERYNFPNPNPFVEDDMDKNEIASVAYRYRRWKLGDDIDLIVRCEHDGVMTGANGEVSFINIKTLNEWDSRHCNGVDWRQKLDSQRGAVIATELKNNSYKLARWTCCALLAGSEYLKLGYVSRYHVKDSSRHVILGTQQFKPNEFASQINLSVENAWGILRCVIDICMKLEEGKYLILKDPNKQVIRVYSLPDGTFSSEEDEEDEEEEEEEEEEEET", "UniProt O88532": "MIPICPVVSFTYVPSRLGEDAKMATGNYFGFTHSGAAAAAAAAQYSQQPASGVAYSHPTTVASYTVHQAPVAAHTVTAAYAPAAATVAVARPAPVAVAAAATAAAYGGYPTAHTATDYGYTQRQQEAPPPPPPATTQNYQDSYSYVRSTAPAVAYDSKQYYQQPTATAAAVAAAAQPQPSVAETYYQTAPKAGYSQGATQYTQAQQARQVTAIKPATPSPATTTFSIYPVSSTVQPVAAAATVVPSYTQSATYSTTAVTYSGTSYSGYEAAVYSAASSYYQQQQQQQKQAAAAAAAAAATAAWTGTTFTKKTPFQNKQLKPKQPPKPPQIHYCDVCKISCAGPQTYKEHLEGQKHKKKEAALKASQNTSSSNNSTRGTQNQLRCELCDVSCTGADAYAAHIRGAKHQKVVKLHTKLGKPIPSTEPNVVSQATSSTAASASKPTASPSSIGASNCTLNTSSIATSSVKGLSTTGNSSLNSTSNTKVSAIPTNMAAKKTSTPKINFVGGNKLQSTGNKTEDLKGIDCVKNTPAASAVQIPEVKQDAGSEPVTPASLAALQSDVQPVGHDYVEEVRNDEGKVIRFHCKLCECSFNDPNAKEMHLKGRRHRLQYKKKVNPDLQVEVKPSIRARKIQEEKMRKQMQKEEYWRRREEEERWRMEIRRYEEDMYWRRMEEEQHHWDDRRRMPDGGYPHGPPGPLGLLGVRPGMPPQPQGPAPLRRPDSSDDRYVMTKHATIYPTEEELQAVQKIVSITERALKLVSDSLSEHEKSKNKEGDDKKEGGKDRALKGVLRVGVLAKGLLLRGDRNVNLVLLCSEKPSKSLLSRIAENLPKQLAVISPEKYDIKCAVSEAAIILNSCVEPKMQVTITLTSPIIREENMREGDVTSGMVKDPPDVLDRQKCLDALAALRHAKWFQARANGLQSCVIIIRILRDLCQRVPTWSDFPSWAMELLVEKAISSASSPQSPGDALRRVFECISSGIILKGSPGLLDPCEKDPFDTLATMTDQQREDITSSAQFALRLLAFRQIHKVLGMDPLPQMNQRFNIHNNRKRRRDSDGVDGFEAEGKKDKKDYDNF", "UniProt O70251": "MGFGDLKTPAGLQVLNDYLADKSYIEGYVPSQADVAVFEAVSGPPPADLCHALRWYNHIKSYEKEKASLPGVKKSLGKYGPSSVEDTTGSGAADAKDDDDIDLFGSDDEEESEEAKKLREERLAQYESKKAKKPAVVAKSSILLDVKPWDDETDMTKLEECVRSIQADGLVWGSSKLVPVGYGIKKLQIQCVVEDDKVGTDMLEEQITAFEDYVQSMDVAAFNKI", "UniProt O70318, whole entry": "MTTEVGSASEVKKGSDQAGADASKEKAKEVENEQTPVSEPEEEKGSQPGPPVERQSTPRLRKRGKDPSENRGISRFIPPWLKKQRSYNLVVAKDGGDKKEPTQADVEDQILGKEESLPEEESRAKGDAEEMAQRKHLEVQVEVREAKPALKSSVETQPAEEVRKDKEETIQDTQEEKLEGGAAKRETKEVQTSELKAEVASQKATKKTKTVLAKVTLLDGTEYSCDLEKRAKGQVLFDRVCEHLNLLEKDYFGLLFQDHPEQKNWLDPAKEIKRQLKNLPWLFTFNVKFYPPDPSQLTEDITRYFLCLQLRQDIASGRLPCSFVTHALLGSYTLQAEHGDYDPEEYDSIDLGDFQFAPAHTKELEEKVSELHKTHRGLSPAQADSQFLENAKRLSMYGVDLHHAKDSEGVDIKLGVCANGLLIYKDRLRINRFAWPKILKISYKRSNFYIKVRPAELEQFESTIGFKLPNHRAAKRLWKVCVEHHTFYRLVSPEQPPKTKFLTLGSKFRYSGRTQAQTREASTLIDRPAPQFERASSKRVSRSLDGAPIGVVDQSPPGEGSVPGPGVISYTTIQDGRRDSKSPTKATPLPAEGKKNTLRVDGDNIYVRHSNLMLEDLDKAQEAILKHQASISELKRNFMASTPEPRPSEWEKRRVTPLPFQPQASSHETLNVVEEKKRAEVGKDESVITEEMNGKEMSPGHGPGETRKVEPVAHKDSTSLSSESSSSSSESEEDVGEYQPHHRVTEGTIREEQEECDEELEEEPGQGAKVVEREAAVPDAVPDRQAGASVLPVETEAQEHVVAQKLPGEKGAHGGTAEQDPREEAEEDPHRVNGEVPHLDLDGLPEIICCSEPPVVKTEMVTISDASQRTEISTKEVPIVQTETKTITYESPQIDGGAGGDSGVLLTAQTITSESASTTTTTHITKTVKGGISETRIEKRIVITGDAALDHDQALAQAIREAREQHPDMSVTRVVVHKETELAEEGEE", "UniProt O70439": "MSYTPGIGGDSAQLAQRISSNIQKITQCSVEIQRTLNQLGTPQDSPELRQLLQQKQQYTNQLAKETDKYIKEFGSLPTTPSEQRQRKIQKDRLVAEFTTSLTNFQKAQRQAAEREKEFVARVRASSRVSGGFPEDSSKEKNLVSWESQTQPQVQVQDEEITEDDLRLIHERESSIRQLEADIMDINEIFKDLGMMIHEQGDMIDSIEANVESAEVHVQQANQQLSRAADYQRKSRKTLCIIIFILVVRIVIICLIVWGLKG"}, "source": "the supplement of paper PMC12819154", "about": "“High-throughput peptide-centric local stability assay extends protein–ligand identification to membrane proteins, tissues and bacteria” (Nature Structural & Molecular Biology, 2025)", "note": "This is one part of the list. Most values lie at the level of the controls, where differences are scatter."}
{"compound": "CN[C@@H]1C[C@H]2O[C@@](C)([C@@H]1OC)n1c3ccccc3c3c4c(c5c6ccccc6n2c5c31)C(=O)NC4 [staurosporine]", "assay": "log2 fold change of pooled soluble protein (PISA), ligand vs vehicle (log2 ratio); higher = more thermally stabilized", "conditions": "ligand concentration: 20 uM; assay format: PISA pool 52.9/55.5/58.6 C"}
{"target": "UniProt O55135", "log2 fold change of pooled soluble protein": -0.0651}
{"target": "UniProt O88455", "log2 fold change of pooled soluble protein": 0.0735}
{"target": "UniProt O08983", "log2 fold change of pooled soluble protein": 0.111}
{"target": "UniProt O35215", "log2 fold change of pooled soluble protein": -0.671}
{"target": "UniProt G3X9K3", "log2 fold change of pooled soluble protein": 0.106}
{"target": "UniProt O89020", "log2 fold change of pooled soluble protein": -0.0801}
{"target": "UniProt O55201", "log2 fold change of pooled soluble protein": 0.224}
{"target": "UniProt O88947", "log2 fold change of pooled soluble protein": 0.154}
{"target": "UniProt O88968", "log2 fold change of pooled soluble protein": -0.0775}
{"target": "UniProt O08756", "log2 fold change of pooled soluble protein": -0.00275}
{"target": "UniProt O70591", "log2 fold change of pooled soluble protein": -0.0509}
{"target": "UniProt O89086", "log2 fold change of pooled soluble protein": -0.0408}
{"target": "UniProt O88967", "log2 fold change of pooled soluble protein": -0.106}
{"target": "UniProt O89001", "log2 fold change of pooled soluble protein": -0.137}
{"target": "UniProt P00920", "log2 fold change of pooled soluble protein": -0.0257}
{"target": "UniProt O89026", "log2 fold change of pooled soluble protein": 0.152}
{"target": "UniProt O35295", "log2 fold change of pooled soluble protein": 0.133}
{"target": "UniProt O08807", "log2 fold change of pooled soluble protein": -0.361}
{"target": "UniProt O08795", "log2 fold change of pooled soluble protein": 0.1}
{"target": "O35207;Q9CPY4", "log2 fold change of pooled soluble protein": 0.0568}
{"target": "UniProt O35448", "log2 fold change of pooled soluble protein": 0.0323}
{"target": "UniProt O35598", "log2 fold change of pooled soluble protein": -0.218}
{"target": "UniProt O35343", "log2 fold change of pooled soluble protein": -0.154}
{"target": "UniProt O70194", "log2 fold change of pooled soluble protein": -0.0348}
{"target": "UniProt O89079", "log2 fold change of pooled soluble protein": 0.329}
{"target": "UniProt O88532", "log2 fold change of pooled soluble protein": 0.0323}
{"target": "UniProt O08573", "log2 fold change of pooled soluble protein": 0.152}
{"target": "UniProt O70251", "log2 fold change of pooled soluble protein": -0.0859}
{"target": "UniProt O54865", "log2 fold change of pooled soluble protein": -0.00118}
{"target": "UniProt O08532", "log2 fold change of pooled soluble protein": -0.0489}
{"target": "UniProt P00688", "log2 fold change of pooled soluble protein": 0.00871}
{"target": "UniProt O35609", "log2 fold change of pooled soluble protein": -0.0432}
{"target": "UniProt G5E8K5", "log2 fold change of pooled soluble protein": -0.124}
{"target": "UniProt O08759", "log2 fold change of pooled soluble protein": 0.0306}
{"target": "UniProt O70318", "log2 fold change of pooled soluble protein": -0.0659}
{"target": "UniProt O70439", "log2 fold change of pooled soluble protein": -0.0646}
{"target": "UniProt O08677", "log2 fold change of pooled soluble protein": -0.102}
